The series can be described thus: peptide made by a vendor. To be noted: whole synthesis.

Plain letter strings leave the end groups untold.

As to LLGDFFRKSKEKIGKEFKRIVQRIKDFLRNLVPRTES, the “final purity (method not given)” value is 98%.

For the origin of these results see patent US20100056431A1 (priority 2006, published 2010).
